Results of single-concentration screens

Each number is a percent effect as filed.
The record does not define 0% and 100%; most values in the screen are far below 50% and negative numbers occur (in some assays of this library far below -100).
This is an unselected part of the compounds tested.
Two or more numbers in one place are separate tests of the same structure; such repeats can differ widely.
A dash means the value is not listed here; it may have been measured.

T. brucei: 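Whole-parasite assay of Trypanosoma brucei over 72 hours; the read-out is not stated. Tested at 30 µM. Direction is inferred from retests: higher values go with stronger inhibition. Values scatter widely below zero; nearly all retest evidence comes from the higher of the two concentrations used. Size under these conditions: about 64,000 compounds, about 940 of them at 50% or above in at least one test.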
Toxoplasma: 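Assay of Toxoplasma gondii numbers, read through their beta-galactosidase reporter with a colour substrate. Tested at 10 µM. The record gives no direction; the compounds picked for IC50 retests had high values, so higher reads as fewer parasites. Size under these conditions: about 67,000 compounds, about 260 of them at 50% or above in at least one test.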
Leishmania in macrophages: 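Cell assay of Leishmania donovani living inside macrophages; the read-out is not stated. Tested at 30 µM. Higher reads as stronger inhibition (inferred: compounds with an IC50 in retests scored well above the rest). Size under these conditions: about 69,000 compounds, about 1,000 of them at 50% or above in at least one test.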

Compound	T. brucei	Toxoplasma	Leishmania in macrophages
CC(Nc1ccn(CCS(C)(=O)=O)n1)c1ccc(C#N)cc1 (centres unmarked)	7.813	-3.184	9.694
COc1cccc(CCC2CCCN(C(=O)c3ccc(OC)o3)C2)c1 (centres unmarked)	-68.68	10.06	31.23
COc1ccc(NC(=O)NCc2cccc(N(C)C)n2)c(Cl)c1	103.9	-4.89	-23.09
Cc1[nH]ncc1CCCNC(=O)Nc1ccc(C#N)cc1	38.25	-2.77	36.66
CC(C)(O)CCc1cccc(C(=O)N2CCC3(CCO3)CC2)c1	-36.25	-0.6576	-40.44
CCn1ncc2c1C(COC)CN(S(=O)(=O)C1CC1)C2 (centres unmarked)	-36.23	0.471	26.7
CCC(=O)Nc1cc(Br)cn(C)c1=O	-21.78	-2.596	13.4
CCCc1nc(C)cc(N2Cc3cnn(CCO)c3C2)n1	-29.95	-82.77	-3.503
CN(C)c1nc2c(c(=O)[nH]1)Cc1ccccc1OC2	-21.12	-10.85	-29.11
CC(=O)NCCNC(=O)CN1CCOC(Cn2cccn2)C1 (centres unmarked)	-	13.58	3.041
CCOCC(O)CN1CCN(C(=O)c2ccsc2)CC1 (centres unmarked)	-27.54	-4.93	31.07
Cc1cc(C)n(CC2CN(CC(=O)N3CCNC3=O)CCO2)n1 (centres unmarked)	-30.74	18.2	-18.04
O=C1CCC(=O)N1Cc1ccc(C(=O)N2CCCC2c2cccs2)cc1 (centres unmarked)	-	13.25	27.29
Cn1ccc(CN2CCC(COC3CCCC3)CC2)cc1=O	24.96	2.306	3.405
Cc1ncsc1C(=O)OCCN1CCCc2ccccc21	-13.24	-12.23	2.216
[H][C@@]12CS(=O)(=O)C[C@]1([H])N(C(=O)c1ccc3nc(C)oc3c1)CCN2CCC	-65.51	11.04	18.01
CSc1ccc(-n2ccnc2-c2cc3n(n2)CCNC3)cc1	-28.58	-3.946	-19.35
Cc1csc(N2CCN(CC(=O)Nc3cc(C)nn3C)CC2C)n1 (centres unmarked)	-	-1.93	15.36
CCC(CC(=O)NS(=O)(=O)C(C)C)c1ccccc1 (centres unmarked)	-	-3.969	-1.743
Cc1nn(C)cc1CCC(=O)N1CCCC(n2cncn2)C1 (centres unmarked)	-17.68	-8.613	3.462
Cc1nn(CC(=O)O)c(C)c1NS(=O)(=O)c1cc2ccccc2s1	-43.35	-4.003	2.289
Cc1cc2nccc(C3CCN(C(=O)c4ccccc4F)CC3)n2n1	10.43	18.87	13.55
O=C(O)C(F)(F)F.O=C(O)C(F)(F)F.c1csc(CN2CCC3(CC2)CCN(CC2CCOCC2)C3)n1	-43.16	1.071	6.065 & 1.675
CN(C)C(C(=O)N1CCN(S(N)(=O)=O)CC1)c1ccccc1F (centres unmarked)	-6.659	-0.8683	15.92
CC(C)CN1CCCC1c1ccc(C(=O)Nc2cn(C)nn2)s1 (centres unmarked)	0.1891	-5.827	17.11
Nc1nc(N2CCCCC2)ncc1C(=O)NCc1ccc(F)c(Cl)c1	0.7409	-	7.785
Cc1cc(-c2ccc(C(=O)O)cc2)nc(C2CCCN(C(C)C)C2)n1 (centres unmarked)	-0.1955	-5.518	21.2
CS(=O)(=O)NCc1cc2n(n1)CCCN(Cc1ccc(Cl)s1)C2	-43.76	-0.5247	12.98
CC(=O)Nc1cc(F)c(S(=O)(=O)N(C)CC2CCC2)c(F)c1	2.257	0.6384	8.391
CN(C)c1nccc(C2CCCN(C(=O)CO)C2)n1 (centres unmarked)	-43.17	4.202	17.77
Cc1nc[nH]c1C(=O)N1CCCC2(CN(C)C(=O)O2)C1 (centres unmarked)	2.767	1.186	25.3
Cc1nccn1-c1ccc(N2CCC(NC(C)C(C)C)CC2)cc1 (centres unmarked)	19.37	4.357	28.62
CC(CNC(=O)N1CCC(CO)CC1)Cc1cccs1 (centres unmarked)	11.32	-5.37	1.772
Cc1cc(C)nc(Nc2nccnc2C2CCCN(C(CO)CO)C2)n1 (centres unmarked)	-13.48	-6.509	9.498
CCCc1nnc(NC2CCN(Cc3ccc(F)c(F)c3)CC2)o1	-15.59	-0.2283	11.94
CC(C)n1cnnc1CNC(=O)CCCOc1ccccc1F	-22.84	-2.294	-8.203
CC(=O)N1CCCN(C(=O)NC(C)Cn2ccnc2)CC1 (centres unmarked)	-3.423	0.5737	-7.832
Cc1ccsc1CN(CCCC(F)(F)F)Cc1ccccn1	-33.08	7.963	-15.8
O=C1NCCCN1Cc1nc(-c2ccc(N3CCCCC3)cc2)no1	-5.194	-4.953	8.728
CCc1cn[nH]c1C1CCCN(C(=O)c2ncoc2C(C)C)C1 (centres unmarked)	-45.01	-1.855	12.36

Some entries from above, unchanged:

Compound	T. brucei	Toxoplasma	Leishmania in macrophages
Cc1nccn1-c1ccc(N2CCC(NC(C)C(C)C)CC2)cc1 (centres unmarked)	19.37	4.357	28.62
CCC(CC(=O)NS(=O)(=O)C(C)C)c1ccccc1 (centres unmarked)	-	-3.969	-1.743
Cc1cc(C)nc(Nc2nccnc2C2CCCN(C(CO)CO)C2)n1 (centres unmarked)	-13.48	-6.509	9.498

Data taken from ChEMBL document CHEMBL3988442, “University of Dundee, Small-Polar-MMV Screening Library” (2021).